The source gives many values for each of these; only a part stands here.
Test system: L. major lysate proteins
Test: Multitargeted bead mixture chemoproteomics, single concentration competition, proteome-wide
Type: binding
Details: for fold change: vehicle control = 1

CCCCCCOc1cccc(Cc2cnc(N)nc2N)c1 [compound 2]
fold change (LMJF.29.2360 ASPARTYL AMINOPEPTIDASE, PUTATIVE): 0.87
fold change (LMJF.30.0580 HYPOTHETICAL PROTEIN, CONSERVED): 0.96
fold change (LMJF.30.1040 HYPOTHETICAL PROTEIN, CONSERVED): 0.83
fold change (LMJF.30.3380 PAS-DOMAIN CONTAINING PHOSPHOGLYCERATE KINASE, PUTATIVE): 0.91
fold change (LMJF.30.3530 HYPOTHETICAL PROTEIN, CONSERVED): 0.83
fold change (LMJF.30.3570 ZINC FINGER-DOMAIN PROTEIN, PUTATIVE): 1.15
fold change (LMJF.31.1110 HY[…], CONSERVED): 0.99
fold change (LMJF.31.2640 2-OXOGLUTARATE DEHYDROGENASE, E3 COMPONENT, […]-LIKE PROTEIN): 1.06
fold change (LMJF.32.0450 AF467951_1 ribosomal protein S2): 1.55
fold change (LMJF.33.3270 DELTA-12 FATTY ACID DESATURASE): 1.13
fold change (LMJF.34.0010 HY[…], CONSERVED): 1.04
fold change (LMJF.34.2610 ATP-DEPENDENT DNA HELICASE, PUTATIVE): 0.87
fold change (LMJF.34.4620 HY[…], CONSERVED): 1.04
fold change (LMJF.35.2150 HY[…], CONSERVED): 1.06
fold change (LMJF.35.2980 CHAPERONE PROTEIN DNAJ, PUTATIVE): 0.83
fold change (LMJF.35.4300 HYPOTHETICAL PROTEIN, CONSERVED): 0.81
fold change (LMJF.35.4880 HY[…], CONSERVED): 1.16
fold change (LMJF.36.0250 EIF3-INTERACTING PROTEIN-LIKE PROTEIN): 0.95
fold change (LMJF.36.1940 INOSINE-GUANOSINE TRANSPORTER): 1.04
fold change (protein AF312586_1 IRON […] B1 (AF312583_1 iron […] B2)): 1.11
fold change (protein CLM00008612.1 UNNAMED PROTEIN PRODUCT): 0.85
fold change (protein LINJ.01.0790 […] 4A, PUTATIVE): 1.26
fold change (protein LINJ.03.0240 RIBOSOMAL PROTEIN L38, PUTATIVE): 2.01
fold change vs vehicle control (protein LINJ.04.0630 HY[…], CONSERVED): 1.03
fold change (protein LINJ.05.0070 DYNEIN LIGHT CHAIN, PUTATIVE): 0.9
fold change (protein LINJ.07.0210 CYTOCHROME C1, HEME PROTEIN, MIT[…], PUTATIVE): 1.27
fold change vs vehicle control (protein LINJ.08.1020 STRESS-INDUCED PROTEIN STI1): 1.19
fold change (protein LINJ.16.1510 PAR[…] PROTEIN 2C): 1.08
fold change (protein LINJ.19.0140 PROTEIN KINASE, PUTATIVE,MITOGEN-ACTIVATED PROTEIN KINASE, PUTATIVE): 1.44
fold change (protein LINJ.23.0860 3-KETOACYL-COA THIOLASE, PUTATIVE): 1.1
fold change (protein LINJ.24.2300 60S RIBOSOMAL PROTEIN L12, PUTATIVE): 1.33
fold change (protein LINJ.25.1460 GTP-BINDING PROTEIN, PUTATIVE): 1.07
fold change (protein LINJ.25.2230 SUCCINYL-COA […] SUBUNIT, PUTATIVE): 1.25
fold change (protein LINJ.26.0590 10 KDA HEAT SHOCK PROTEIN, PUTATIVE): 1.07
fold change (protein LINJ.26.0840 40S RIBOSOMAL PROTEIN S16, PUTATIVE): 1.19
fold change (protein LINJ.28.1310 GLUCOSE-REGULATED PROTEIN 78, PUTATIVE): 1.15
fold change (protein LINJ.28.1850 […]-ATP-ASE SUBUNIT 2, PUTATIVE): 1.26
fold change (protein LINJ.28.2280 DYNEIN LIGHT CHAIN LC6, FLAGELLAR OUTER ARM, PUTATIVE): 1.2
fold change (protein LINJ.31.0710 HY[…], CONSERVED): 1.15
fold change (protein LINJ.32.0240 DYNEIN LIGHT CHAIN, FLAGELLAR OUTER ARM, PUTATIVE): 1.3
fold change vs vehicle control (protein LINJ.32.2960 PROTEASOME REGULATORY NON-ATP-ASE SUBUNIT, PUTATIVE): 1.1
fold change (protein LINJ.32.3230 PROTEIN PHOSPHATASE 2A CATALYTIC SUBUNIT, PUTATIVE): 1.17
fold change (protein LINJ.33.0350 HEAT SHOCK PROTEIN 83-1): 1.12
fold change (protein LINJ.35.2250 kinetoplastid membrane protein 11): 0.89
fold change (protein LINJ.35.3840 60S RIBOSOMAL PROTEIN L23, PUTATIVE): 1.19
fold change vs vehicle control (protein LINJ.35.4200 POLY(A)-BINDING PROTEIN 2,POLY(A) BINDING PROTEIN, PUTATIVE): 1.11
fold change (protein LMJF.01.0320 POLY(A) EXPORT PROTEIN, PUTATIVE): 1.21
fold change (protein LMJF.01.0650 MIT[…] BETA SUBUNIT, PUTATIVE): 1
fold change (protein LMJF.02.0450 VOLTAGE-DEPENDENT ANION-SELECTIVE CHANNEL, PUTATIVE): 1.2
fold change (protein LMJF.03.0200 DELTA-1-PYRROLINE-5-CARBOXYLATE DEHYDROGENASE, PUTATIVE): 0.99
fold change (protein LMJF.03.0980 […] 2 ALPHA SUBUNIT, PUTATIVE): 1.08
fold change vs vehicle control (protein LMJF.04.1230 actin): 1.17
fold change vs vehicle control (protein LMJF.07.0220 HYPOTHETICAL PROTEIN, CONSERVED): 0.87
fold change (protein LMJF.07.0270 […] DEACETYLASE-LIKE PROTEIN): 1.02
fold change (protein LMJF.07.0340 ATP-DEPENDENT DEAD/H RNA HELICASE, PUTATIVE): 1.1
fold change (protein LMJF.07.0640 HYPOTHETICAL PROTEIN, CONSERVED): 0.9
fold change (protein LMJF.07.1000 RNA BINDING PROTEIN-LIKE PROTEIN): 1.3
fold change (protein LMJF.07.1140 PEPTIDE […] REDUCTASE-LIKE): 1.06
fold change (protein LMJF.08.0320 MITOCHONDRIAL ASSOCIATED RIBONUCLEASE, PUTATIVE): 0.93
fold change (protein LMJF.09.0970 […]-1 GAMMA): 1.09
fold change (protein LMJF.10.0210 NUCLEOLAR PROTEIN, PUTATIVE): 1.12
fold change (protein LMJF.11.0220 PTERIN-4-ALPHA-CARBINOLAMINE DEHYDRATASE, PUTATIVE): 1.09
fold change (protein LMJF.11.0350 14-3-3 PROTEIN, PUTATIVE): 1.13
